Measurements as given in the supplement of paper PMC4862054.
Most entries show no effect beyond the scatter of the controls.

Experiments:
Experiment in all cases: normalised response (% of control), CellTox Green; higher = less cell death (100 = DMSO, 0 = benzethonium chloride kill control)
Conditions in all cases: incubation time: 72 h
MDA-MB-436 [1] = test system: MDA-MB-436
Experimental: (§1)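 DSRT, 72 h incubation, CellTox Green / CellTiter-Glo readout. Signal is normalised to DMSO and benzethonium chloride controls. Value is the normalised response at the lowest tested concentration.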

BT-474 [2] = test system: BT-474
Experimental: as §1

CAL-51 [3] = test system: CAL-51
Experimental: as §1

HCC1937 = test system: HCC1937
Experimental: as §1

HCC1599 [4] = test system: HCC1599
Experimental: as §1

CAL-148 [5] = test system: CAL-148
Experimental: as §1

Hs578T [6] = test system: Hs578T
Experimental: as §1

CAL-120 [7] = test system: CAL-120
Experimental: as §1

CAL-85-1 [8] = test system: CAL-85-1
Experimental: as §1

MCF-10A [9] = test system: MCF-10A
Experimental: as §1

HCC1143 [10] = test system: HCC1143
Experimental: as §1

BT-549 [11] = test system: BT-549
Experimental: as §1

MDA-MB-453 [12] = test system: MDA-MB-453
Experimental: as §1

HDQ-P1 [13] = test system: HDQ-P1
Experimental: as §1

MFM-223 [14] = test system: MFM-223
Experimental: as §1

DU-4475 [15] = test system: DU-4475
Experimental: as §1

MDA-MB-231 [16] = test system: MDA-MB-231
Experimental: as §1

MDA-MB-468 = test system: MDA-MB-468
Experimental: as §1

MDA-MB-436 [17] = test system: MDA-MB-436; remark: listed apart in the source
Experimental: (§2)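 DSRT, 72 h incubation, CellTox Green / CellTiter-Glo readout. Signal is normalised to DMSO and benzethonium chloride controls. Value is the normalised response at dose 2.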

BT-474 [18] = test system: BT-474; remark: listed apart in the source
Experimental: as §2

CAL-51 [19] = test system: CAL-51; remark: listed apart in the source
Experimental: as §2

HCC1599 [20] = test system: HCC1599; remark: listed apart in the source
Experimental: as §2

CAL-148 [21] = test system: CAL-148; remark: listed apart in the source
Experimental: as §2

Hs578T [22] = test system: Hs578T; remark: listed apart in the source
Experimental: as §2

CAL-120 [23] = test system: CAL-120; remark: listed apart in the source
Experimental: as §2

CAL-85-1 [24] = test system: CAL-85-1; remark: listed apart in the source
Experimental: as §2

MCF-10A [25] = test system: MCF-10A; remark: listed apart in the source
Experimental: as §2

HCC1143 [26] = test system: HCC1143; remark: listed apart in the source
Experimental: as §2

BT-549 [27] = test system: BT-549; remark: listed apart in the source
Experimental: as §2

MDA-MB-453 [28] = test system: MDA-MB-453; remark: listed apart in the source
Experimental: as §2

HDQ-P1 [29] = test system: HDQ-P1; remark: listed apart in the source
Experimental: as §2

MFM-223 [30] = test system: MFM-223; remark: listed apart in the source
Experimental: as §2

DU-4475 [31] = test system: DU-4475; remark: listed apart in the source
Experimental: as §2

MDA-MB-231 [32] = test system: MDA-MB-231; remark: listed apart in the source
Experimental: as §2

SMILES | normalised response (MDA-MB-436 [1]) [%] | normalised response (BT-474 [2]) [%] | normalised response (CAL-51 [3]) [%] | normalised response (HCC1937) [%] | normalised response (HCC1599 [4]) [%] | normalised response (CAL-148 [5]) [%] | normalised response (Hs578T [6]) [%] | normalised response (CAL-120 [7]) [%] | normalised response (CAL-85-1 [8]) [%] | normalised response (MCF-10A [9]) [%] | normalised response (HCC1143 [10]) [%] | normalised response (BT-549 [11]) [%] | normalised response (MDA-MB-453 [12]) [%] | normalised response (HDQ-P1 [13]) [%] | normalised response (MFM-223 [14]) [%] | normalised response (DU-4475 [15]) [%] | normalised response (MDA-MB-231 [16]) [%] | normalised response (MDA-MB-468) [%] | normalised response (MDA-MB-436 [17]) [%] | normalised response (BT-474 [18]) [%] | normalised response (CAL-51 [19]) [%] | normalised response (HCC1599 [20]) [%] | normalised response (CAL-148 [21]) [%] | normalised response (Hs578T [22]) [%] | normalised response (CAL-120 [23]) [%] | normalised response (CAL-85-1 [24]) [%] | normalised response (MCF-10A [25]) [%] | normalised response (HCC1143 [26]) [%] | normalised response (BT-549 [27]) [%] | normalised response (MDA-MB-453 [28]) [%] | normalised response (HDQ-P1 [29]) [%] | normalised response (MFM-223 [30]) [%] | normalised response (DU-4475 [31]) [%] | normalised response (MDA-MB-231 [32]) [%]
Cn1cncc1[C@@](N)(c1ccc(Cl)cc1)c1ccc2c(c1)c(-c1cccc(Cl)c1)cc(=O)n2C [Tipifarnib] (1 nM) | 97.6 | 102 | 120 | 69.9 | 99.1 | 98.9 | 71.9 | 95.7 | 97.9 | 102 | 109 | 106 | 109 | 97 | 96.8 | 100 | 89.8 | – | – | – | – | – | – | – | – | – | – | – | – | – | – | – | – | –
CN1CCC(COc2cnc(-c3cccc(Cn4nc(-c5cccc(C#N)c5)ccc4=O)c3)nc2)CC1 (0.1 nM) | 79 | 102 | 84.6 | 112 | 91.2 | 97.7 | 106 | 95.8 | 105 | 98.3 | – | 96.9 | 110 | 101 | 90.3 | 98 | 109 | – | – | – | – | – | – | – | – | – | – | – | – | – | – | – | – | –
CCCCCCCCc1ccc(CCC(N)(CO)CO)cc1 [Fingolimod] (1 nM) | 56 | 103 | 123 | – | 100 | 106 | 107 | 102 | 107 | 72.9 | 96.7 | 102 | 112 | 98.5 | 102 | 102 | 101 | 69.7 | – | – | – | – | – | – | – | – | – | – | – | – | – | – | – | –
Nc1ccccc1NC(=O)c1ccc(CNc2nccc(-c3cccnc3)n2)cc1 [Mocetinostat] (1 nM) | 84.1 | 98.4 | 73.9 | 97.9 | 94.7 | – | 67.2 | 102 | 106 | – | 107 | 104 | 101 | 59.6 | 102 | 99.6 | 107 | 78.1 | – | – | – | – | – | – | – | – | – | – | – | – | – | – | – | –
Clc1ccc(C(c2ccccc2Cl)C(Cl)Cl)cc1 (stereo not given) [Mitotane] (1 nM) | 105 | 98.5 | 106 | 80.2 | 100 | – | 57.2 | 99.3 | 97.1 | 92.5 | 112 | 87.5 | 101 | 77.7 | 89.8 | 99.5 | 99.8 | 109 | – | – | – | – | – | – | – | – | – | – | – | – | – | – | – | –
CC[C@H](CO)Nc1nc(NCc2ccccc2)c2ncn(C(C)C)c2n1 [Seliciclib] (1 nM) | 68.1 | 104 | 117 | 92.3 | 103 | 96.6 | 85.9 | 98.5 | 105 | 94.8 | 120 | 92.7 | 104 | – | 85.6 | 101 | 101 | 116 | – | – | – | – | – | – | – | – | – | – | – | – | – | – | – | –
COc1cc(Nc2c(C#N)cnc3cc(OCCCN4CCN(C)CC4)c(OC)cc23)c(Cl)cc1Cl [Bosutinib] (1 nM) | 88.9 | 97.9 | 113 | 107 | 104 | 80.3 | 112 | 96.1 | 97 | 98.9 | 122 | 89 | 105 | – | 95.8 | 108 | 98.2 | – | – | – | – | – | – | – | – | – | – | – | – | – | – | – | – | –
NC(=O)Nc1cc(-c2cccc(F)c2)sc1C(=O)N[C@H]1CCCNC1 [AZD7762] (0.1 nM) | 65.2 | 95.6 | 94.5 | – | 105 | 105 | 109 | 101 | 102 | – | 89.3 | 108 | 94.1 | 92.5 | – | 102 | 109 | 82.8 | – | – | – | – | – | – | – | – | – | – | – | – | – | – | – | –
COc1cc(CCc2cc(NC(=O)c3ccc(N4CC(C)NC(C)C4)cc3)n[nH]2)cc(OC)c1 (stereo not given) [AZD4547] (0.1 nM) | 69.2 | 97.2 | 116 | 85.9 | 88.9 | 95.3 | 92.1 | 98.7 | 103 | 104 | – | 67.1 | 98.6 | 91.3 | 91.2 | 94.6 | 105 | 122 | – | – | – | – | – | – | – | – | – | – | – | – | – | – | – | –
C[C@]12C=CC(=O)C=C1CC[C@@H]1[C@@H]2C(=O)C[C@@]2(C)[C@H]1CC[C@]2(O)C(=O)CO [Prednisone] (1 nM) | 73.9 | 102 | 95.8 | 81.5 | 99.3 | 99.8 | – | 94.7 | 100 | 84.5 | – | 106 | 108 | 93.8 | 88.7 | 102 | 118 | 112 | – | – | – | – | – | – | – | – | – | – | – | – | – | – | – | –
CC[C@H](C)C(=O)O[C@H]1C[C@H](O)C=C2C=C[C@H](C)[C@H](CC[C@@H](O)C[C@@H](O)CC(=O)O)[C@H]21 [Pravastatin] (1 nM) | 73.3 | 98.5 | 106 | – | 101 | 94.1 | 67.1 | 79 | 93.6 | 103 | 103 | 106 | 86.9 | 101 | 103 | 100 | 102 | 86.6 | – | – | – | – | – | – | – | – | – | – | – | – | – | – | – | –
CC1(C)CCC(c2ccc(Cl)cc2)=C(CN2CCN(c3ccc(C(=O)NS(=O)(=O)c4ccc(N[C@H](CCN5CCOCC5)CSc5ccccc5)c(S(=O)(=O)C(F)(F)F)c4)cc3)CC2)C1 [Navitoclax] (1 nM) | 84.7 | 91.4 | 88.5 | 99.9 | 98.5 | 101 | 86.8 | 98.3 | 99.5 | 101 | 122 | 95.8 | 103 | – | 82.1 | 97.9 | 98.1 | 79.8 | – | – | – | – | – | – | – | – | – | – | – | – | – | – | – | –
Cc1ccc(-n2nc(C(C)(C)C)cc2NC(=O)Nc2ccc(OCCN3CCOCC3)c3ccccc23)cc1 [Doramapimod] (1 nM) | 81.8 | 98.7 | – | 102 | 97.3 | 99.9 | 105 | 95.8 | 98.7 | 74.2 | 108 | 107 | 100 | – | 97.3 | 93.2 | 88.6 | 98.4 | – | – | – | – | – | – | – | – | – | – | – | – | – | – | – | –
COc1cc2ncnc(Nc3ccc(F)c(Cl)c3)c2cc1OCCCN1CCOCC1 [Gefitinib] (1 nM) | 102 | 101 | 111 | 100 | 102 | 85.9 | 73.7 | 101 | 97.6 | 84.7 | 125 | 96.5 | 106 | – | 99.3 | 101 | 113 | 87.8 | – | – | – | – | – | – | – | – | – | – | – | – | – | – | – | –
CC[C@@H]1C(=O)N(C)c2cnc(Nc3ccc(C(=O)NC4CCN(C)CC4)cc3OC)nc2N1C1CCCC1 [BI 2536] (0.1 nM) | 72.3 | 103 | 114 | – | 95.4 | 103 | 102 | 92.9 | 103 | – | 89 | 96.6 | 109 | 66.5 | 97.3 | 99.5 | 98.7 | 87.2 | – | – | – | – | – | – | – | – | – | – | – | – | – | – | – | –
C[C@@H]1C=C2C(=O)O[C@@H]3CC[C@H](C1)[C@]23O [Galiellalactone] (5 nM) | 70.5 | 102 | 117 | 110 | 94.8 | 107 | 111 | 97.3 | 103 | – | 96.6 | 97.3 | 110 | 99.7 | 105 | 103 | 111 | 108 | – | – | – | – | – | – | – | – | – | – | – | – | – | – | – | –
